Reference: publication PMC11092803, “Heme allocation in eukaryotic cells relies on mitochondrial heme export through FLVCR1b to cytosolic GAPDH” (Research Square, 2024)
No constants are given. Whether binding was seen depends on the method and setting. Binding seen in cells or lysates may run through a third protein. Some binding calls cover weakened binding; strength is not graded here.

Protein sequences, listed by entry. Tags and fused reporters are not part of them. Lines headed by an entry give the natural chain unless they say otherwise; changes in a name come on top.
UniProt P04406: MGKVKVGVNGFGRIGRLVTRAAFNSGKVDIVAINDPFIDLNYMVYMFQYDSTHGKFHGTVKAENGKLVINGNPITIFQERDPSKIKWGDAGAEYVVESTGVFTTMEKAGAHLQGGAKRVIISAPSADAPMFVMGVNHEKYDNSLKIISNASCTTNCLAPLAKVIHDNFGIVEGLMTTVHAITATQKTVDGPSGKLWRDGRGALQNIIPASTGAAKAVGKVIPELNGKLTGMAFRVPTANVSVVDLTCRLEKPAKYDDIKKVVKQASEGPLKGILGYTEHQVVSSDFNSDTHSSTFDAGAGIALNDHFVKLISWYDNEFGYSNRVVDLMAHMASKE

Assays:
[1] = molecular target: T1, Feline Leukemia Virus subgroup C Receptor 1b (FLVCR1b) (human (endogenous in HEK293T)) (UniProt Q9Y5Y0); test: co-IP; solubilised (1% Triton X-100) mitochondria of HEK293T cells, 0.5 mg protein, anti-FLVCR antibody and Protein G agarose, Western blot; at times after δ-ALA/Fe
T1 sequence: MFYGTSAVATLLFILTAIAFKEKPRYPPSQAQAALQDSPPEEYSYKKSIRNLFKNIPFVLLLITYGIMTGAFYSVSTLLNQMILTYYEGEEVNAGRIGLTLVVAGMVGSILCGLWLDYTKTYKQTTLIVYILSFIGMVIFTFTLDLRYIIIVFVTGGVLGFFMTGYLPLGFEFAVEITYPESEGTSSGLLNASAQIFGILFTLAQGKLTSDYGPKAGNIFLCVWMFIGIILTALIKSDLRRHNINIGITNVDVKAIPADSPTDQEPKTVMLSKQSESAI

[2] = molecular target: T1, Feline Leukemia Virus subgroup C Receptor 1b (FLVCR1b) (human (endogenous in HEK293T)); test: proximity ligation; Duolink PLA on HEK293T cells transfected with HA-tagged GAPDH wild type or H53A, antibodies to HA and FLVCR1; resting and at times after δ-ALA/Fe; background = one primary antibody alone

binding [1] | binding [2] | Substance
binds |  | glyceraldehyde phosphate dehydrogenase (GAPDH) (from UniProt P04406 1-335)
binds | binds | HA-tagged human GAPDH reporter protein TC-hGAPDH (wild type) (from UniProt P04406 1-335)
binds |  | H53A point mutant variant of HA-hGAPDH (from UniProt P04406 1-335)
